1 substance from PMC10950212, “Structure and antigenicity of the divergent human astrovirus VA1 capsid spike” (PLOS Pathogens, 2024) can be followed below.

The chains behind the UniProt entries cited, without tags or fusion partners. Residues count along the entry.
HAstV-VA1 capsid protein VP33 (Human astrovirus VA1 (gastrointestinal strain)) (C7BG48, residues 1-298): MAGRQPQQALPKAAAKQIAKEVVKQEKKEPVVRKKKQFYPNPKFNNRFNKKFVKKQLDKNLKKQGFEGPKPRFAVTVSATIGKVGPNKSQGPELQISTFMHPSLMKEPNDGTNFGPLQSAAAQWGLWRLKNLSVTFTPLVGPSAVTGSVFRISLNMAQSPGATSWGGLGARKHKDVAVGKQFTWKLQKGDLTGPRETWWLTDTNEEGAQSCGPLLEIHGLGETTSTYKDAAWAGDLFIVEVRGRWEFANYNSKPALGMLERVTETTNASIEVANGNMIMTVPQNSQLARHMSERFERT
HAstV-VA1 capsid protein VP38 (C7BG48, residues 348-690): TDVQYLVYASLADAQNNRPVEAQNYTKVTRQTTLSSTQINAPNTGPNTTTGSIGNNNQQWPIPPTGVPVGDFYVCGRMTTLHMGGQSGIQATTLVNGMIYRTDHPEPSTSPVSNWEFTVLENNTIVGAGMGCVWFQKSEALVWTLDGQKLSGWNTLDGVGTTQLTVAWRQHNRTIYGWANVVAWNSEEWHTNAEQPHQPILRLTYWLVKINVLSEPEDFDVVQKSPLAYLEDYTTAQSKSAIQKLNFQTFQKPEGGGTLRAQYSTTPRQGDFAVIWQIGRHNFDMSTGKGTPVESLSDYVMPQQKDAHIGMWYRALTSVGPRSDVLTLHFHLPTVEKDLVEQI

This assay addresses HAstV-VA1 capsid protein VP33 (Human astrovirus VA1 (gastrointestinal strain)) (UniProt C7BG48). The experiment in a line: co-sedimentation; virus particles from Caco-2 cells purified by CsCl isopycnic centrifugation; capsid proteins separated by SDS-PAGE, Coomassie, bands identified by LC-MS/MS.

Results are given in words; binding and its absence hold for the method and conditions named. In cells and extracts the contact can be indirect. Some binding calls cover weakened binding; strength is not graded here.

For the substance “HAstV-VA1 capsid protein VP38 (from UniProt C7BG48 348-690) (domain or fragment)”, the binding result is “binds”.
